The list shows a part of the results. Further columns of the screen follow, without active or inactive calls. Compounds called inactive in the main read-out are mostly missing here. Potencies come from curve fits of mixed quality, noted in brackets.
Experiment: qHTS Assay for Modulators of Lamin A Splicing
Details: HeLa LMNA splicing GFP/RFP minigene ratio, 48 h
In short: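 S3 HeLa cells stably expressing lamin A-EGFP splicing minigene plus DsRed2, 600 cells/well, 48 h compound exposure at 37C. Laser-scanning cytometry; analysed as GFP (500-530 nm)/RFP (575-640 nm) total intensity ratio; 0.5% DMSO vehicle.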

[1] = measured here: RFP viability control channel
[2] = measured here: GFP splicing reporter channel

Row | SMILES | AC50 [1] | AC50 [2]
1 | O=C(CCn1cnc(-c2ccccc2)c1-c1ccccc1)N/N=C/c1ccc(O)cc1 | 35.5 µM [rising, single point] | 
2 | CC(C)(C)C1CCC2(CC1)C(C#N)=C(SCC(=O)NC1CCCCC1)NC(=O)C2C#N (centres undefined) | 8.91 µM [rising, partial curve, poor fit] | 
3 | CCC(CC)C(=O)Nc1nnc2n1CCS2 | 0.0282 µM [rising, full curve, poor fit] | 0.0251 µM [rising, full curve, poor fit]
4 | O=c1cc(-c2c(F)c(F)c(F)c(F)c2F)oc2c(F)c(F)c(F)c(F)c12 | 35.5 µM [rising, single point] | 
5 | COC(=O)[C@@H]1CCCN1C(=O)CCc1nnc(CCC2CCCCC2)o1 | 10 µM [falling, partial curve] | 
6 | Cc1ccc(C)c(S(=O)(=O)N/N=C/c2ccc(F)cc2)c1 | 0.355 µM [falling, full curve, poor fit] | 
7 | N#Cc1ccc2c(c1)N(CCCN1CCC(O)CC1)c1ccccc1S2 | 0.00631 µM [falling, full curve, poor fit] | 20 µM [falling, partial curve]
8 | COc1cccc(Cc2nc3ccccc3nc2SCC(=O)Nc2ccccc2F)c1 | 28.2 µM [falling, partial curve] | 7.94 µM [falling, partial curve, poor fit]
9 | O=C(CCC1CCCCC1)N1CCN(Cc2ccc3c(c2)OCO3)CC1 | 35.5 µM [rising, single point] | 
10 | COC(=O)c1ccc2c(=O)n(-c3ccccc3)c(SCN3C(=O)c4ccccc4C3=O)nc2c1 | 0.0708 µM [falling, full curve, poor fit] | 
11 | Cc1ccc(S(=O)(=O)CCC(=O)c2ccc(O)cc2O)cc1 | 22.4 µM [rising, single point] | 
12 | COc1ccc(C(C)=O)c(Oc2nc(CN3CCOCC3)nc3scc(-c4cccs4)c23)c1 | 3.98 µM [rising, single point] | 2.82 µM [rising, full curve, poor fit]
13 | CCC1(c2ccccc2)C(=O)NCNC1=O |  | 3.98 µM [rising, full curve, poor fit]
14 | Cc1ccc(-c2nc(N)sc2-c2ccccc2)cc1C | 25.1 µM [rising, partial curve] | 17.8 µM [rising, partial curve]
15 | N#CC(Nc1ccccc1)c1ccccc1OCc1ccccc1 (centres undefined) | 35.5 µM [rising, single point] | 
16 | CCn1c(COc2c(C)cccc2C)nnc1SCC(=O)N1CCN(c2ccccc2)CC1 | 3.98 µM [rising, full curve] | 4.47 µM [rising, partial curve]
17 | CCOC(=O)C1CCCN(CC(=O)Nc2c(C(=O)OC)[nH]c3ccccc23)C1 (centres undefined) | 2.82 µM [rising, partial curve] | 1.58 µM [rising, full curve, poor fit]
18 | C=CCSc1nnc(NC(=O)c2cn(CC)c3nc(C)ccc3c2=O)s1 |  | 0.282 µM [falling, full curve]
19 | Cc1ccc(CNCC(O)(c2ccccc2)c2ccc(F)cc2)cc1 (centres undefined) | 25.1 µM [falling, single point] | 17.8 µM [falling, single point]
20 | CCN(CC)S(=O)(=O)c1nnc(NC(=O)COc2cccc(C)c2)s1 | 0.00282 µM [falling, full curve, poor fit] | 
21 | Cc1ccccc1N1CCN(CCCN2C(=O)CC(=C(c3ccccc3)c3ccccc3)C2=O)CC1 | 12.6 µM [rising, partial curve] | 8.91 µM [rising, partial curve, poor fit]
22 | Cc1ccc(-n2c(SCC(=O)c3c(N)n(C)c(=O)n(C)c3=O)nc3sc4c(c3c2=O)CCCC4)c(C)c1 | 4.47 µM [rising, full curve] | 1.12 µM [rising, partial curve]
23 | CC(=O)Oc1ccc(-c2cccc(C(=O)OCC(=O)Nc3ccccc3Oc3ccccc3)c2)cc1 | 15.8 µM [rising, partial curve] | 
24 | COc1ccc(CCNC(=O)CCCCCn2c(SCC(N)=O)nc3cc4c(cc3c2=O)OCO4)cc1OC | 11.2 µM [rising, partial curve] | 0.00316 µM [rising, full curve, poor fit]
25 | Cc1ccc2nc(N3C(=O)C(O)=C(C(=O)c4cc5ccccc5o4)C3c3cccs3)sc2c1 (centres undefined) | 31.6 µM [rising, single point] | 
26 | N/C(=N\OC(=O)c1ccc(Cl)cc1[N+](=O)[O-])c1cccnc1 | 11.2 µM [falling, partial curve] | 15.8 µM [falling, partial curve, poor fit]

Some of these compounds in order of length of the SMILES, falling.
Row | SMILES | AC50 [1] | AC50 [2]
10 | COC(=O)c1ccc2c(=O)n(-c3ccccc3)c(SCN3C(=O)c4ccccc4C3=O)nc2c1 | 0.0708 µM [falling, full curve, poor fit] | 
25 | Cc1ccc2nc(N3C(=O)C(O)=C(C(=O)c4cc5ccccc5o4)C3c3cccs3)sc2c1 (centres undefined) | 31.6 µM [rising, single point] | 
9 | O=C(CCC1CCCCC1)N1CCN(Cc2ccc3c(c2)OCO3)CC1 | 35.5 µM [rising, single point] | 

(listing goes on)

Row | SMILES | AC50 [1] | AC50 [2]
27 | COC(=O)C1=C(C(=O)OC)[C@@H]2N(Cc3ccccc3)c3ccccc3[C@@]23C[C@@H](C(=O)OC)N(S(=O)(=O)c2ccc(C(F)(F)F)cc2)C3=N1 | 1.78 µM [rising, single point] | 0.141 µM [rising, full curve, poor fit]
28 | CC(C)Oc1cc(NC(=O)CSCC(=O)Nc2cccc(C(F)(F)F)c2)c(Cl)cc1Cl | 35.5 µM [rising, single point] | 35.5 µM [rising, single point]
29 | CN(C)CCCN1C(=O)c2cccc3c([N+](=O)[O-])ccc(c23)C1=O | 8.91 µM [rising, partial curve, poor fit] | 
30 | CCOc1ccc(S(=O)(=O)N2CCc3cc(OC)c(OC)cc3C2)cc1 | 35.5 µM [rising, single point] | 31.6 µM [rising, single point]
31 | Nc1nnc(COc2cccc(C(F)(F)F)c2)s1 | 35.5 µM [rising, single point] | 
32 | CCc1ccc(N2C(=O)c3sc4nnc(C)c(=O)n4c3C2=O)cc1 | 15.8 µM [rising, single point] | 25.1 µM [rising, single point]
33 | O=C(NCCc1ccccc1)c1ccc(CSc2nc3cccnc3n2Cc2ccccc2)cc1 | 35.5 µM [falling, partial curve, poor fit] | 25.1 µM [falling, partial curve]
34 | COC(=O)c1cccc(OCC(O)Cn2cnc3cc(C)c(C)cc32)c1 (centres undefined) | 31.6 µM [rising, single point] | 
35 | Cc1cccc(CSCCNC(=S)Nc2ccccc2)c1 | 17.8 µM [rising, single point] | 11.2 µM [rising, single point]
36 | CCOC(=O)c1nnn(-c2nonc2N)c1-c1cccs1 |  | 35.5 µM [rising, single point]
37 | CCc1nc(N2CCN(Cc3ccc4c(c3)OCO4)CC2)c2oc3ccccc3c2n1 | 7.08 µM [falling, partial curve] | 7.94 µM [falling, partial curve]
38 | O=C(NNC(=O)c1ccncc1)Nc1cccc([N+](=O)[O-])c1 | 0.00355 µM [falling, full curve, poor fit] | 
39 | CC1=NN(c2ccc(S(=O)(=O)O)cc2C)C(=O)C1 | 0.316 µM [rising, full curve, poor fit] | 0.141 µM [rising, full curve, poor fit]
40 | CC(C)CC(=O)Nc1ccc(C(=O)NNC(=S)NC(=O)C2CCCCC2)cc1 | 31.6 µM [rising, single point] | 
41 | Cc1cc(C)cc(NC(=S)NCc2ccc3[nH]c4c(c3c2)CCCC4)c1 | 20 µM [rising, partial curve] | 12.6 µM [rising, partial curve, poor fit]
42 | COc1ccc(NC(=O)CCCN2C(=O)/C(=C\c3ccco3)SC2=S)cc1 | 2.82 µM [rising, full curve, poor fit] | 
43 | COc1ccc(C(=O)c2c(C(F)(F)F)oc3c2C(=O)c2ccccc2C3=O)cc1 | 5.01 µM [falling, full curve] | 3.16 µM [falling, full curve]
44 | CCC(=O)Nc1ccccc1Nc1cc(C#N)c(C#N)cc1[N+](=O)[O-] | 15.8 µM [rising, single point] | 17.8 µM [rising, single point]
45 | Cc1cc(C)nc(SCSc2nc(C)cc(C)n2)n1 | 3.55 µM [rising, single point] | 
46 | COc1ccc(N2COC3c4cccc5cccc(c45)C32)cc1 (centres undefined) | 15.8 µM [falling, single point] | 
47 | COc1ccc(OC)c(NC(=O)CSc2nnc(Cc3cccn3C)n2CCc2ccccc2)c1 | 0.794 µM [falling, full curve, poor fit] | 0.562 µM [falling, full curve]
48 | CN1CCN(CCCC(=O)c2ccc(C3CCCC3)cc2)CC1 | 7.08 µM [rising, single point] | 3.98 µM [rising, partial curve, poor fit]
49 | CCN(CC)S(=O)(=O)c1cccc(NC(=O)Nc2cccc(C(F)(F)F)c2)c1 | 35.5 µM [rising, single point] | 35.5 µM [rising, single point]
50 | O=C(NCCc1c[nH]c2ccccc12)C(=O)NCC1OCCCN1S(=O)(=O)c1ccccc1 (centres undefined) | 15.8 µM [rising, single point] | 12.6 µM [rising, single point]
51 | CCc1ccc(NC(=O)COc2ccc(F)cc2C(=O)c2cnn(-c3ccccc3)c2)cc1 | 10 µM [rising, partial curve, poor fit] | 35.5 µM [rising, single point]

Part of the list above, tab-delimited:
Row	SMILES	AC50 [1]	AC50 [2]
50	O=C(NCCc1c[nH]c2ccccc12)C(=O)NCC1OCCCN1S(=O)(=O)c1ccccc1 (centres undefined)	15.8 µM [rising, single point]	12.6 µM [rising, single point]
51	CCc1ccc(NC(=O)COc2ccc(F)cc2C(=O)c2cnn(-c3ccccc3)c2)cc1	10 µM [rising, partial curve, poor fit]	35.5 µM [rising, single point]

Reference: PubChem BioAssay AID1487 (National Center for Advancing Translational Sciences (NCATS), 2009)
